Measurements: US20210024652A1
Where a chain is given by its changes, count along the chain named. These are yes or no findings as the source states them, for the method shown. Some entries that bind do so weakly or less than the wild type. One block for each binder: values may come before it.

By UniProt entry, the sequences of proteins in these tests, tags left out. Where a name states a change or a piece, a line headed by the entry shows the natural chain unless it says otherwise.
UniProt Q5VYX0: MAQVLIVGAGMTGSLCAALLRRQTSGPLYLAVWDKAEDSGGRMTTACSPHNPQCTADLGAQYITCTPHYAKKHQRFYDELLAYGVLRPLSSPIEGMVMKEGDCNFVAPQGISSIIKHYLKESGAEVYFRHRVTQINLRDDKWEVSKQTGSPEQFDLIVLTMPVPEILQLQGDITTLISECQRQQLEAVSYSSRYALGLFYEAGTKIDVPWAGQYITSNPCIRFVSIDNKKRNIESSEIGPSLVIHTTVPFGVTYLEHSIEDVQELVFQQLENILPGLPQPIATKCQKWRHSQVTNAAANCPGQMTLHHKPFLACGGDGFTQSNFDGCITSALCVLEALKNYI

Legend:
human renalase-1 (human) [1] = target: human renalase-1 (human) (UniProt Q5VYX0); test: hybridoma screening on peptide and whole renalase; Biacore
human renalase-2 (human) = human renalase-2 (human) (UniProt Q5VYX0); test: hybridoma screening on peptide and whole renalase
human renalase-1 (human) [2] = target: human renalase-1 (human) (UniProt Q5VYX0); test: immunofluorescence on a tissue microarray of normal human pancreas and ductal carcinoma, RNLS channel quantified with AQUAnalysis; target is endogenous tissue RNLS, isoform not specified
human renalase-1 (human) [3] = target: human renalase-1 (human) (UniProt Q5VYX0); test: immunohistochemistry (DAB, hematoxylin counterstain) on sections of normal human pancreas and pancreatic ductal adenocarcinoma Grades I-IV; target is endogenous tissue RNLS, isoform not specified

B3: monoclonal antibody 1D-28-4 (antibody, V domains shown)
VH: QSVEESGGRLVTPGTPLTLTCTVSGFSLSSFAVGWVRQAPGKGLEYIGIISSVGITRYASWAAGRFTISKTSTTVDLKITSPTTEDTATYFCARYGYSGDVNRLDLWGQGTLVTVSS
VL: AQVLTQTASPVSAAVGGTVTINCQASQSVYDNNNLAWYQQKPGQPPKQLIYGASTLASGVSSRFKGSGSGTQFTLTISGVQCDDAATYYCLGEFSCSSADCFAFGGGTEVVVKG
- binding (human renalase-1 (human) [1]): binds
- binding (human renalase-1 (human) [2]): binds
- binding (human renalase-1 (human) [3]): binds

B4: monoclonal antibody 1F-26-1 (antibody, V domains shown)
VH: QSVKESEGGLFKPTDTLTLTCTVSGFSLSSYGVTWVRQAPGNGLEWIGLIGDRGTTFYASWAKSRSTITRNTNLNTVTLKMTRLTAADTATYFCARGSGYGARIWGPGTLVTVSS
VL: AQVLTQTPSPVSAAVGGTVTINCQSSQSVYKNNYLAWYQQKPGQPPKLLIYETSKLASGVPPRFSGSGSGTQFTLTISSVQCDDAATYYCQGGYSGVDFMAFGGGTEVVVKG
- binding (human renalase-1 (human) [1]): binds

Next, values leading:

- binding (human renalase-1 (human) [1]): binds
B1: monoclonal antibody 1D-37-10 (antibody, V domains shown)
VH: QSVEESGGRLVTPGGSLTLTCTVSGFSLSDYAIIWVRQAPGKGLEYIAIIGSSGDTFYATWAKGRFTISKTSTTVDLKMTSLTAADTATYFCAPRYAGTTDYHDAFDPWGPGTLVTVSS
VL: EVVMTQTPASMEAPMGGTVTIKCQASQNIYNYLSWYQQKPGQPPKLLVYKASTLTSGVPSRFKGSGSGTQFTLTISDLECADAATYYCQINYSIYNHYNIIFGGGTEVVVKG

- binding (human renalase-2 (human)): binds
B2: monoclonal antibody 3A-5-2 (antibody, V domains shown)
VH: QSLEESGGRLVTPGTPLTLTCTVSGFSLNNYHIYWVRQAPGKGLEYIGIIFNGGTYYARWTKGRFTISKTSTTVDLKMTSLTTEDTATYFCARGDGIWGPGTLVTVSL
VL: AQVLTQTPASVSAAVGGTVTINCQASQSVFNNNYLAWYQQKPGQPPKRLIYSASTLASGVSSRFKGSGSGTEFTLTMSGVECDDAATYYCAGSFDCNSGDCVAFGGGTEVVVKG

- binding (human renalase-1 (human) [1]): binds
B5: monoclonal antibody 1F-42-7 (antibody, V domains shown)
VH: B4 VH with S29T, S30T, F57Y, A62V, K63N, S64G, S114A
VL: B4 VL with V11M, V15L, S28T, K31N, A36S, A57S
